Laboratory results from publication PMC8045197.
These are yes or no findings as the source states them, for the method shown. In cells and extracts the contact can be indirect. Some entries that bind do so weakly or less than the wild type. For some assays here: Sequences can lack the tags named with a protein.

Protein sequences, listed by entry. Tags and fused reporters are not part of them.
UniProt P49759: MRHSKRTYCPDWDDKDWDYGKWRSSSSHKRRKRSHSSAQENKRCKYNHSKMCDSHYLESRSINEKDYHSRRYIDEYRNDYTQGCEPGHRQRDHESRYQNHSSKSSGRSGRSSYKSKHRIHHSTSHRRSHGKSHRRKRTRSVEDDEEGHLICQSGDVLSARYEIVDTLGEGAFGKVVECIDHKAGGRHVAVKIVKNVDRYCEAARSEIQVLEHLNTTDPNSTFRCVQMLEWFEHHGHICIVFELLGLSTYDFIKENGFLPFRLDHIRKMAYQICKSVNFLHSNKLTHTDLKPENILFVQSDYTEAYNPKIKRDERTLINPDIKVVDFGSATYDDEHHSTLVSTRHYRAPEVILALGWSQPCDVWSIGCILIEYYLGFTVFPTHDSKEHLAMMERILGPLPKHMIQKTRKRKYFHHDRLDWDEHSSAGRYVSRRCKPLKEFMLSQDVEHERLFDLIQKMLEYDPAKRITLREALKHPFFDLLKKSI

Key:
HA-tagged CLK1 (human) = HA-tagged CLK1 (human) (UniProt P49759); assay: co-IP; PANC-1, BxPC-3 (and 293T) cells transfected with plasmids encoding HA-CLK1 and Flag-SRSF5; RIPA Lysis Buffer; co-immunoprecipitation and western blot
[1] = target: endogenous CLK1 (human (endogenous in PANC-1)) (UniProt P49759); assay: co-IP; endogenous proteins in PANC-1 cell lysates; immunoprecipitation with an anti-CLK1 or anti-SRSF5 antibody, normal IgG as control; western blot

Row | binding (HA-tagged CLK1 (human)) | binding [1] | Binder
1 | binds | – | Flag-tagged SRSF5 (protein, UniProt Q13243 1-272) MSGCRVFIGRLNPAAREKDVERFFKGYGRIRDIDLKRGFGFVEFEDPRDADDAVYELDGKELCSERVTIEHARARSRGGRGRGRYSDRFSSRRPRNDRRNAPPVRTENRLIVENLSSRVSWQDLKDFMRQAGEVTFADAHRPKLNEGVVEFASYGDLKNAIEKLSGKEINGRKIKLIEGSKRHSRSRSRSRSRTRSSSRSRSRSRSRSRKSYSRSRSRSRSRSRSKSRSVSRSPVPEKSQKRGSSSRSKSPASVDRQRSRSRSRSRSVDSGN
2 | – | binds | endogenous SRSF5 (protein, UniProt Q13243 1-272) MSGCRVFIGRLNPAAREKDVERFFKGYGRIRDIDLKRGFGFVEFEDPRDADDAVYELDGKELCSERVTIEHARARSRGGRGRGRYSDRFSSRRPRNDRRNAPPVRTENRLIVENLSSRVSWQDLKDFMRQAGEVTFADAHRPKLNEGVVEFASYGDLKNAIEKLSGKEINGRKIKLIEGSKRHSRSRSRSRSRTRSSSRSRSRSRSRSRKSYSRSRSRSRSRSRSKSRSVSRSPVPEKSQKRGSSSRSKSPASVDRQRSRSRSRSRSVDSGN
